# Laboratory results published in PubChem BioAssay AID2685 (National Center for Advancing Translational Sciences (NCATS), 2010).
# The list shows a part of the results. These are further read-outs of the screen, such as a control signal, another cell line or another target. No call is given for them. Compounds called inactive in the main read-out are mostly missing here. Words in brackets tell the shape of the fitted curve; partial curves, single points and poor fits give uncertain potencies.
# Assay: qHTS Assay for Lipid Storage Modulators in Drosophila S3 Cells;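 as to cell number change: cells counted by Cell Tracker Red CMTPX staining in the red channel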
# Conditions: BODIPY lipid droplet fluorescence, 18-24 h; for cell number change: measured here: cell count max response, cells fed with added oleic acid
# Outline: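 Laser-scanning cytometry quantifies lipid droplet accumulation (500–530 nm total intensity; droplet/cell object ratio) in oleic acid-fed (400 uM added) Drosophila S3 cells treated with a concentration series. 20 uM Triacsin C defined 100% inhibition.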
# [1] = measured here: lipid fluorescence (Fed channel) AC50, cells fed with added oleic acid
# [2] = measured here: cell number channel AC50, cells fed with added oleic acid
Compound,cell number change,AC50 [1],AC50 [2]
O=C(Cn1cnc2ccccc2c1=O)c1ccc(OC(F)F)cc1,-3.95%,–,–
O=C(O)CSc1ncnc2scc(-c3ccc(Br)cc3)c12,-6.23%,"0.13 µM [falling, full curve, poor fit]",–
CC(=O)c1nn(-c2cccc(Br)c2)cc1C(=O)c1ccc(Br)cc1,9.78%,"6.51 µM [rising, single point]",–
COc1ccc(CCC(=O)Nc2cccc(S(=O)(=O)N3CCCC3)c2)cc1OC,21.9%,"0.231 µM [rising, full curve, poor fit]",–
CCOc1ccccc1-c1nnc(SCC(=O)NC2CC2)n1CC,2.76%,–,–
CCc1c(C)nc(Nc2nc(C)c3cc(OC)ccc3n2)[nH]c1=O,-18.7%,"5.17 µM [falling, partial curve, poor fit]",–
Cc1ccc(NC(=O)c2cc(NC(=O)c3ccco3)ccc2N2CCOCC2)cc1Cl,50%,"1.84 µM [rising, partial curve]","7.31 µM [rising, partial curve]"
O=c1c(-c2ccc(Oc3ccccc3)cc2)[n+]([O-])c2ccccc2n1OCc1ccccn1,–,–,"0.0517 µM [rising, full curve, poor fit]"
NS(=O)(=O)c1c(Sc2ccccc2C(=O)O)ccc2ccccc12,10.3%,"13 µM [rising, partial curve]",–
CC(=O)c1ccc(NC2OC(C)C(O)C(O)C2O)cc1 (centres undefined),-25.5%,"3.26 µM [falling, full curve, poor fit]",–
CC(C)C(=O)N1CCN(c2ccccc2NC(=O)Cc2ccc(Cl)cc2)CC1,-2.02%,–,"0.00411 µM [falling, full curve, poor fit]"
CC(=O)c1cccc(NC(=O)N2CCCC2C(=O)Nc2ccc3c(c2)OCO3)c1 (centres undefined),-48.2%,"0.92 µM [falling, full curve, poor fit]","0.651 µM [falling, full curve, poor fit]"
C=CCOC(=O)C1=C(C)Nc2nnnn2C1c1cccs1 (centres undefined),-8.45%,"1.3 µM [rising, partial curve, poor fit]",–
CCOC(=O)C1(CC2CCCCO2)CCN(S(=O)(=O)c2cccc(F)c2)CC1 (centres undefined),-4.24%,"29.1 µM [falling, single point]",–
Cc1onc(-c2c(Cl)cccc2Cl)c1C(=O)N1CCN(c2ncccn2)CC1,1.31%,–,–
Cc1ccc(/C=C/C(=O)NC2CCCCCCC2)o1,-24.7%,"29.1 µM [falling, single point]",–
O=C(NCCOc1ccccc1)c1cc(S(=O)(=O)N2CCOCC2)ccc1F,2.36%,–,–
O=C(c1ccc(F)cc1Cl)N(c1ccccn1)C1CCCCC1,–,"4.61 µM [falling, single point]","6.51 µM [rising, single point]"
O=S(=O)(c1cccc(-c2nc3n(n2)Cc2ccccc2-3)c1)N1CCCC1,3.44%,"20.6 µM [falling, single point]",–
COc1cccc(CNC(=O)c2ccccc2N)c1,15.5%,"29.1 µM [rising, single point]",–

# In the list so far, these contain fluorine.
Compound,cell number change,AC50 [1],AC50 [2]
O=C(Cn1cnc2ccccc2c1=O)c1ccc(OC(F)F)cc1,-3.95%,–,–
CCOC(=O)C1(CC2CCCCO2)CCN(S(=O)(=O)c2cccc(F)c2)CC1 (centres undefined),-4.24%,"29.1 µM [falling, single point]",–
O=C(NCCOc1ccccc1)c1cc(S(=O)(=O)N2CCOCC2)ccc1F,2.36%,–,–
O=C(c1ccc(F)cc1Cl)N(c1ccccn1)C1CCCCC1,–,"4.61 µM [falling, single point]","6.51 µM [rising, single point]"

# Later entries

Compound,cell number change,AC50 [1],AC50 [2]
Cc1ccc(S(=O)(=O)CCC(=O)Oc2ccc3c(C)cc(=O)oc3c2)cc1,13.7%,–,–
CC1=NOC(=O)/C1=C/c1ccc2c(c1)OCO2,24.7%,"0.0206 µM [rising, partial curve, poor fit]",–
Cc1nn(-c2ccccc2)nc1C(=O)NN,15.1%,"6.51 µM [rising, single point]",–
CCOC(=O)c1[nH]c(=O)[nH]c1CNc1ccccc1C#N,3.52%,–,–
Nn1c(SCc2ccccc2)nnc1-c1ccco1,-62.7%,–,"23.1 µM [falling, single point]"
CC1(c2nnc(Cc3ccccc3)o2)CC(c2ccccc2Br)=NO1 (centres undefined),18.7%,"2.91 µM [rising, partial curve]","3.66 µM [falling, single point]"
O=S(=O)(c1cccc(-c2nc3ccccc3s2)c1)N1CCCC1,1.52%,–,–
CCOC(=O)c1c(NC(=S)Nc2ccc(Cl)cc2)sc2c1CCN(C)C2,23.4%,–,–
COC(=O)C(NC(C)=O)(Nc1ccccc1)C(=O)OC,-27.1%,"29.1 µM [falling, single point]",–
CN(CC(=O)Nc1ccc(F)cc1)C(=O)c1cc(-c2ccco2)nc2ccccc12,–,"0.206 µM [rising, full curve, poor fit]","2.91 µM [rising, partial curve, poor fit]"
Cc1ccc(NC(=O)C2CSC3(C)CCC(=O)N23)cc1S(=O)(=O)N1CCOCC1 (centres undefined),4.02%,–,–
CCC(C)(C)NC(=S)Nc1ccc(-c2nc3ccc(C)cc3s2)cc1,-41%,"10.3 µM [falling, partial curve]","7.31 µM [falling, partial curve]"
Cc1nnc(N2CCN(c3ccccc3)CC2)[nH]c1=O,-17.3%,"29.1 µM [falling, single point]","3.66 µM [falling, single point]"
COc1cccc(-n2nnc3c(=O)n(Cc4ccccc4F)cnc32)c1,-28.9%,"9.2 µM [falling, partial curve]",–
CC(C)(C)S(=O)(=O)c1cnc2c(-c3ccc(F)cc3)cnn2c1N,2.79%,"0.58 µM [rising, single point]",–
OC(CNc1ccccc1)COc1ccc(OCC(O)CNc2ccccc2)cc1 (centres undefined),-24.8%,–,–
CCn1c(COc2ccccc2)nnc1SCc1ccc(C#N)cc1,-29.8%,"32.6 µM [falling, single point]",–
Cc1cc(C(=O)NNC(=O)CCCOc2ccccc2)c(C)o1,-35.3%,–,"4.11 µM [falling, partial curve]"
COc1ccc(OC)c(N(CC(=O)N2CCC(C)CC2)S(=O)(=O)c2ccc(OC)c(OC)c2)c1,-28.6%,"0.231 µM [falling, full curve, poor fit]",–
O=S(=O)(c1ccc(F)cc1)N1CCn2c(nc3ccccc32)C1,-6.71%,"6.51 µM [rising, single point]",–
